The experiment concerns the target GSK3-APEX2 (Drosophila) (UniProt P18431). In words: proximity labelling; GSK3-APEX2 expressed in germ cells of the Drosophila ovary; 500 uM biotin-phenol for 30 min, 1 mM H2O2 for 1 min; mitochondria isolated and lysed in RIPA; biotinylated proteins enriched on streptavidin beads; mass spectrometry; compared with CD8-APEX2 controls, logFC cut-off ….

Protein sequences, listed by entry. Tags and fused reporters are not part of them.
UniProt P18431: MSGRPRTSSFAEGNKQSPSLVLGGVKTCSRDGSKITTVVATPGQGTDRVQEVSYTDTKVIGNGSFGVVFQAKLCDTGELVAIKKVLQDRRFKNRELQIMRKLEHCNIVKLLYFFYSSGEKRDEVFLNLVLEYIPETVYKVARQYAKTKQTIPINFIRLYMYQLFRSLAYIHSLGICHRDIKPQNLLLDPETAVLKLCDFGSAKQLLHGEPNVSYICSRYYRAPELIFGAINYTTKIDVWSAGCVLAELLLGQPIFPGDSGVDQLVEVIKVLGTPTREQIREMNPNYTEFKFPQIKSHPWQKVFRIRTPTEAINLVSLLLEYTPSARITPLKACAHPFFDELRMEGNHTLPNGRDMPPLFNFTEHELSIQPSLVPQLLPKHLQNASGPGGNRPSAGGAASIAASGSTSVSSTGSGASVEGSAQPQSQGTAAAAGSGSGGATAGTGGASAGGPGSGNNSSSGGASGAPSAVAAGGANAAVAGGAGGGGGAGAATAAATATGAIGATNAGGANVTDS

These are yes or no findings as the source states them, for the method shown. In cells and extracts the contact can be indirect. Here binding means that the protein was enriched with, or labelled near, the bait; the list need not be complete.

B1: Tom40 (Drosophila) (protein, UniProt Q9U4L6 1-344)
chain: MGNVLAASSGAPGSGASNLGLGLQEPAPLPSNSGSLTESSSSAEGLDSLAAAKDAALENPGTVEELHKKCKDIQAITFEGAKIMLNKGLSNHFQVSHTINMSNVVPSGYRFGATYVGTKEFSPTEAFPVLLGDIDPAGNLNANVIHQFSARLRCKFASQIQESKVVASQLTTDYRGSDYTLSLTVANPSIFTNSGVVVGQYLQSVTPALALGSELAYQFGPNVPGRQIAIMSVVGRYTAGSSVWSGTLGQSGLHVCYYQKASDQLQIGAEVETSLRMQESVATLAYQIDLPKANLVFRGGIDSNWQIFGVLEKRLAPLPFTLALSGRMNHVKNNFRLGCGLMIG
For the molecule B1, the binding entry is recorded as “binds”.

B2: VDAC (Drosophila) (protein, UniProt Q94920 1-282)
chain: MAPPSYSDLGKQARDIFSKGYNFGLWKLDLKTKTSSGIEFNTAGHSNQESGKVFGSLETKYKVKDYGLTLTEKWNTDNTLFTEVAVQDQLLEGLKLSLEGNFAPQSGNKNGKFKVAYGHENVKADSDVNIDLKGPLINASAVLGYQGWLAGYQTAFDTQQSKLTTNNFALGYTTKDFVLHTAVNDGQEFSGSIFQRTSDKLDVGVQLSWASGTSNTKFAIGAKYQLDDDASVRAKVNNASQVGLGYQQKLRDGVTLTLSTLVDGKNFNAGGHKIGVGLELEA
As to B2, the binding entry was “binds”.
